{"source": "PubChem BioAssay AID686943 (Drosophila RNAi Screening Center, 2013)", "purpose": "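Knockdowns that increase or decrease active ERK after insulin receptor stimulation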 (primary screen)", "cells": "Drosophila S2R+ haemocyte-like cells expressing YFP-tagged ERK (Rolled)", "knock-down reagent": "long dsRNA against Drosophila genes", "challenge": "insulin stimulation versus unstimulated cells; dose and duration not given", "detection": "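Antibody staining for doubly phosphorylated ERK divided by ERK-YFP signal, as plate z-scores, in insulin-treated and untreated cells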", "direction": "replicate 1, z-score of dpERK with insulin: higher = more active ERK per ERK-YFP after insulin", "note": "The screen tested about 23,000 reagents; shown is an unselected part of those that have a named target and a result. 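Extra replicates exist only for a retested subset of genes; insulin dose and duration not given; both raised and lowered dpERK matter.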 Further read-outs or replicates are left out here. Not stated in the record: the amount of reagent, the time to read-out."}
{"gene":"CG6652","amplicon":"DRSC10686","replicate 1, z-score of dpERK with insulin":-0.05}
{"gene":"Hsf (Heat shock factor)","amplicon":"DRSC07443","replicate 1, z-score of dpERK with insulin":-0.04}
{"gene":"dlt (discs lost)","amplicon":"DRSC08705","replicate 1, z-score of dpERK with insulin":-1.69}
{"gene":"Ostgamma (Oligosaccharide transferase gamma subunit)","amplicon":"DRSC03074","replicate 1, z-score of dpERK with insulin":0.14}
{"gene":"CG14439","amplicon":"DRSC17931","replicate 1, z-score of dpERK with insulin":0.28}
{"gene":"Set2 (SET domain containing 2)","amplicon":"DRSC19765","replicate 1, z-score of dpERK with insulin":0.46}
{"gene":"Brd (Bearded)","amplicon":"DRSC09685","replicate 1, z-score of dpERK with insulin":0.38}
{"gene":"CG13310","amplicon":"DRSC09981","replicate 1, z-score of dpERK with insulin":-0.56}
{"gene":"CG13690","amplicon":"DRSC00359","replicate 1, z-score of dpERK with insulin":-0.26}
{"gene":"abo (abnormal oocyte)","amplicon":"DRSC02926","replicate 1, z-score of dpERK with insulin":-0.14}
{"gene":"CG11672","amplicon":"DRSC14344","replicate 1, z-score of dpERK with insulin":1.01}
{"gene":"CG32196","amplicon":"DRSC09548","replicate 1, z-score of dpERK with insulin":-0.76}
{"gene":"CG32591","amplicon":"DRSC19063","replicate 1, z-score of dpERK with insulin":-0.27}
{"gene":"Pask (PAS kinase)","amplicon":"DRSC04337","replicate 1, z-score of dpERK with insulin":-0.45}
{"gene":"bin (biniou)","amplicon":"DRSC10332","replicate 1, z-score of dpERK with insulin":-0.23}
{"gene":"qin","amplicon":"DRSC14782","replicate 1, z-score of dpERK with insulin":1.11}
{"gene":"qin","amplicon":"DRSC14785","replicate 1, z-score of dpERK with insulin":0.49}
{"gene":"CG14762","amplicon":"DRSC05073","replicate 1, z-score of dpERK with insulin":0}
{"gene":"CG14762","amplicon":"DRSC06496","replicate 1, z-score of dpERK with insulin":0.76}
{"gene":"Svip (small VCP interacting protein)","amplicon":"DRSC08982","replicate 1, z-score of dpERK with insulin":0}
{"gene":"Hus1-like","amplicon":"DRSC12353","replicate 1, z-score of dpERK with insulin":0.52}
